PubChem BioAssay AID493014 (National Center for Advancing Translational Sciences (NCATS), 2011)
The list shows a part of the results. Shown are side measurements of this screen, not its main read-out; they come without a call. Compounds called inactive in the main read-out are mostly missing here. Potencies come from curve fits of mixed quality, noted in brackets.

Assay: qHTS Assay to Find Inhibitors of Chronic Active B-Cell Receptor Signaling
Conditions: ABC-DLBCL IkBa-CBG/CBR reporter, luminescence ratio (green luciferase fused to IkBa over red control in TMD8 lymphoma cells), 4 h
Procedure, shortened: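 Compounds up to 46 uM were incubated four hours with TMD8 cells whose green CBG68 luciferase is fused to IkappaBalpha; red CBR luminescence normalised the signal, and concentration-effect curves were fitted to fusion, red and ratio data.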

[1] = measured here: CBR red luminescence, cell number
[2] = measured here: IkBa-CBG green luminescence

Row | Structure (SMILES) | AC50 [1] | AC50 [2]
1 | O=C(Cn1nc(C(=O)O)c2ccccc2c1=O)c1cc(F)ccc1F | 0.708 µM [rising, partial curve, poor fit] | 
2 | COc1cccc(/C(O)=C2/C(=O)C(=O)N(CCCN(C)C)C2c2cccc(Cl)c2)c1 (stereo unspecified) | 3.55 µM [rising, full curve, poor fit] | 
3 | CCn1ncc(/C=N/NC(=O)c2ccc3c(c2)OCO3)c1C | 2.24 µM [falling, full curve] | 
4 | OCCN1CCN(c2ncnc3scc(-c4ccc(F)cc4)c23)CC1 | 4.47 µM [rising, partial curve, poor fit] | 
5 | O=C(Nc1ccc(N2CCOCC2)cc1)c1cc(-c2ccncc2)nc2ccccc12 | 10 µM [rising, partial curve, poor fit] | 
6 | Cc1ccc(C2C(C(=O)O)c3ccccc3C(=O)N2C)o1 (stereo unspecified) | 0.366 µM [falling, full curve, poor fit] | 
7 | O=C(/C=C/NNC(=O)c1ccc(Br)cc1)c1ccccc1 | 7.31 µM [falling, partial curve] | 
8 | CCOC(=O)c1sc(NC(=O)c2cc(S(=O)(=O)N3CCOCC3)ccc2C)nc1C | 3.26 µM [falling, single point] | 
9 | O=C(NCCc1c[nH]c2ccccc12)c1ccc(Br)o1 | 0.461 µM [rising, full curve, poor fit] | 
10 | CCc1cccc(NC(=O)Nc2ccc3c(c2)OCO3)c1 | 35.5 µM [falling, single point] | 
11 | CCOC(=O)c1c(-c2ccccc2)csc1NC(=O)CSc1nc(N)cc(N)n1 | 2.59 µM [rising, partial curve, poor fit] | 
12 | Cc1onc(-c2c(Cl)cccc2Cl)c1C(=O)NC(=S)Nc1sc2c(c1C(N)=O)CCC(C)C2 (stereo unspecified) | 0.92 µM [falling, full curve] | 
13 | CC(C)(C)NC(=O)CCCSc1nc2ccccc2s1 | 4.47 µM [rising, full curve] | 
14 | CSc1nc(N2CCOCC2)nc2ccc(C)cc12 | 11.6 µM [rising, partial curve, poor fit] | 
15 | Cc1ccc(-c2csc3ncnc(Sc4nnc(CN5CCCCCC5=O)o4)c23)cc1 | 7.94 µM [falling, partial curve] | 
16 | O=c1[nH]cnc2c1nc(NCc1ccccc1)n2C1O[C@@H](CO)[C@H](O)[C@@H]1O (stereo partly specified) | 12.6 µM [rising, partial curve, poor fit] | 
17 | COc1ccccc1-n1cnnc1SCC(=O)N1CCN(S(=O)(=O)c2ccccc2)CC1 | 0.447 µM [falling, full curve] | 
18 | COc1ccc2[nH]c(=O)c(CNc3ccccc3C)cc2c1 | 35.5 µM [falling, single point] | 
19 | CCOC(=O)c1cnc(SCCc2ccccc2)nc1N | 0.891 µM [rising, partial curve, poor fit] | 
20 | COc1ccc(CNc2nc(NCc3ccc(OC)c(OC)c3)n(C(=O)c3cccs3)n2)cc1OC | 14.1 µM [falling, single point] | 
21 | CSc1ccccc1NC(=S)Nc1cccc(C(F)(F)F)c1 | 29.1 µM [rising, single point] | 
22 | COc1cccc(C(=O)Nc2nnc(C3CCCO3)s2)c1 (stereo unspecified) | 8.2 µM [falling, partial curve] | 

An excerpt of these results, as a markdown table.

| Row | Structure (SMILES) | AC50 [1] | AC50 [2] |
| --- | --- | --- | --- |
| 1 | O=C(Cn1nc(C(=O)O)c2ccccc2c1=O)c1cc(F)ccc1F | 0.708 µM [rising, partial curve, poor fit] |  |
| 2 | COc1cccc(/C(O)=C2/C(=O)C(=O)N(CCCN(C)C)C2c2cccc(Cl)c2)c1 (stereo unspecified) | 3.55 µM [rising, full curve, poor fit] |  |
| 3 | CCn1ncc(/C=N/NC(=O)c2ccc3c(c2)OCO3)c1C | 2.24 µM [falling, full curve] |  |
| 4 | OCCN1CCN(c2ncnc3scc(-c4ccc(F)cc4)c23)CC1 | 4.47 µM [rising, partial curve, poor fit] |  |
| 5 | O=C(Nc1ccc(N2CCOCC2)cc1)c1cc(-c2ccncc2)nc2ccccc12 | 10 µM [rising, partial curve, poor fit] |  |
| 7 | O=C(/C=C/NNC(=O)c1ccc(Br)cc1)c1ccccc1 | 7.31 µM [falling, partial curve] |  |
| 8 | CCOC(=O)c1sc(NC(=O)c2cc(S(=O)(=O)N3CCOCC3)ccc2C)nc1C | 3.26 µM [falling, single point] |  |
| 9 | O=C(NCCc1c[nH]c2ccccc12)c1ccc(Br)o1 | 0.461 µM [rising, full curve, poor fit] |  |
| 10 | CCc1cccc(NC(=O)Nc2ccc3c(c2)OCO3)c1 | 35.5 µM [falling, single point] |  |
| 12 | Cc1onc(-c2c(Cl)cccc2Cl)c1C(=O)NC(=S)Nc1sc2c(c1C(N)=O)CCC(C)C2 (stereo unspecified) | 0.92 µM [falling, full curve] |  |
| 13 | CC(C)(C)NC(=O)CCCSc1nc2ccccc2s1 | 4.47 µM [rising, full curve] |  |
| 14 | CSc1nc(N2CCOCC2)nc2ccc(C)cc12 | 11.6 µM [rising, partial curve, poor fit] |  |
| 15 | Cc1ccc(-c2csc3ncnc(Sc4nnc(CN5CCCCCC5=O)o4)c23)cc1 | 7.94 µM [falling, partial curve] |  |
| 16 | O=c1[nH]cnc2c1nc(NCc1ccccc1)n2C1O[C@@H](CO)[C@H](O)[C@@H]1O (stereo partly specified) | 12.6 µM [rising, partial curve, poor fit] |  |
| 17 | COc1ccccc1-n1cnnc1SCC(=O)N1CCN(S(=O)(=O)c2ccccc2)CC1 | 0.447 µM [falling, full curve] |  |
| 18 | COc1ccc2[nH]c(=O)c(CNc3ccccc3C)cc2c1 | 35.5 µM [falling, single point] |  |
| 19 | CCOC(=O)c1cnc(SCCc2ccccc2)nc1N | 0.891 µM [rising, partial curve, poor fit] |  |
| 21 | CSc1ccccc1NC(=S)Nc1cccc(C(F)(F)F)c1 | 29.1 µM [rising, single point] |  |

Later entries

Row | Structure (SMILES) | AC50 [1] | AC50 [2]
23 | COc1cccc(/C=N/n2c(-c3cc(C)[nH]n3)n[nH]c2=S)c1O | 25.1 µM [falling, single point] | 
24 | COc1cccc(-c2nc(-c3ccccn3)no2)c1 | 7.94 µM [falling, partial curve] | 
25 | O=C(Nc1nnc(-c2cccs2)s1)c1cccc(F)c1 | 0.282 µM [falling, full curve] | 
26 | COc1ccc(-c2cc(C(=O)NC(Cc3c[nH]c4ccccc34)C(=O)O)c(C)o2)cc1OC (stereo unspecified) | 23.1 µM [falling, partial curve] | 
27 | CC(C)(C)C1CCC(OCC(O)CN2CCCC2)CC1 (stereo unspecified) | 7.94 µM [falling, partial curve] | 
28 | COc1ccc(-c2nsc3c(N4CCCCC4C)ncnc23)cc1 (stereo unspecified) | 14.1 µM [rising, partial curve] | 
29 | COc1cc2nc(C)sc2cc1SC | 1.12 µM [falling, full curve] | 
30 | Cc1ccccc1C(=O)Nc1ccc(N2CCCCCC2)cc1 | 12.6 µM [falling, partial curve, poor fit] | 
31 | O=C(CSc1ncccn1)Nc1ccc(N2CCOCC2)cc1 | 29.1 µM [falling, single point] | 
32 | CCOc1ccc(C(=O)Nc2cc(Cl)ccc2-n2cncn2)cc1OC | 2.59 µM [rising, full curve, poor fit] | 
33 | O=C(Nc1ccc(NC(=O)C2CC2)cn1)c1ccccc1Cl | 8.2 µM [falling, partial curve] | 
34 | Cc1cccc(N2CCN(CC(=O)NCc3ccccc3)CC2)c1C | 35.5 µM [falling, single point] | 
35 | CC(=O)C1=C(O)C(=O)N(CCC(=O)O)C1c1cccc(F)c1 (stereo unspecified) | 25.9 µM [rising, partial curve] | 
36 | Cc1nnc(-c2ccc(Oc3ccc(C)c(C)c3)c([N+](=O)[O-])c2)o1 | 23.1 µM [falling, single point] | 
37 | CC(=O)N1c2ccccc2Oc2cc3ccccc3cc21 | 0.326 µM [rising, full curve] | 
38 | C=CCNC(=S)N/N=C(\C)c1ccc(OC)cc1 | 23.1 µM [rising, single point] | 18.4 µM [falling, single point]
39 | Cc1cc(NC(=O)C(C)SCC(=O)N(C)CC(=O)Nc2ccccc2C(F)(F)F)no1 (stereo unspecified) | 7.31 µM [rising, partial curve, poor fit] | 
40 | Cc1cccc(-c2noc(CCCC(=O)NCC3CCCO3)n2)c1 (stereo unspecified) | 2.24 µM [rising, partial curve] | 0.708 µM [rising, full curve, poor fit]
41 | CCCCc1nc2c(=O)[nH]c3ccccc3c2o1 | 0.0891 µM [rising, full curve, poor fit] | 
42 | Cc1cccc(NC(=O)C(=O)NCCCN2CCOCC2)c1 | 3.16 µM [falling, partial curve, poor fit] | 
43 | C/C(CC(=O)Nc1cccc(Cl)c1C)=N\NC(=O)Cc1csc(N)n1 | 5.62 µM [falling, partial curve] | 
44 | Cc1nc(N)nc(SCc2ccc([N+](=O)[O-])cc2)c1N | 17.8 µM [rising, single point] | 

Row | Structure (SMILES) | AC50 [1] | AC50 [2]
45 | COC(=O)NCCOC(=O)N(O)c1ccc(Br)cc1 | 35.5 µM [rising, single point] | 
46 | CC(=O)Nc1ccc(NC(=O)CC2SC(=O)N(CC(=O)c3ccccc3)C2=O)cc1 (stereo unspecified) | 10 µM [rising, partial curve, poor fit] | 
47 | Nc1nc(NC(=O)c2ccccc2Cl)nn1-c1ccccc1 | 0.501 µM [falling, full curve] | 
48 | CCCCC(=O)N/C(N)=N/c1nc2ccccc2o1 | 7.08 µM [falling, partial curve, poor fit] | 
49 | COc1ccc2nc(C)cc(SCC(=O)NNC(=O)COc3ccc(C)cc3)c2c1 | 10 µM [rising, partial curve, poor fit] | 
50 | C/C(=N\NC(=O)Cc1ccc(Cl)cc1)c1ccccn1 | 35.5 µM [rising, single point] | 22.4 µM [falling, single point]
51 | CCOc1cc(C(=O)N/N=C/c2ccoc2)cc(OCC)c1OCC | 35.5 µM [rising, single point] | 35.5 µM [falling, single point]
52 | CCOc1ccccc1C(=O)Nc1cccc2cccnc12 | 10 µM [falling, partial curve] | 
53 | CCCc1cc(=O)oc2cc(OCC(=O)NCCc3c[nH]c4ccccc34)ccc12 | 17.8 µM [rising, single point] | 
54 | CCS(=O)(=O)n1nc(-c2ccccc2)nc1SC | 20.6 µM [falling, single point] | 
55 | Cc1nc(CC(C)C)cc(C(=O)N2CCCC(CNS(=O)(=O)c3cccs3)C2)n1 (stereo unspecified) | 0.355 µM [rising, full curve, poor fit] | 
56 | Cc1ccc(N2CC(C(=O)NCc3ccc4c(c3)OCO4)CC2=O)cc1C (stereo unspecified) | 6.51 µM [falling, single point] | 
57 | COc1ccc(-c2cn3c(C)c(C(=O)Nc4ccncc4)sc3n2)cc1 | 29.1 µM [falling, single point] | 
58 | CC(=O)Nc1cccc(C(=O)OCC(=O)N2CCC(c3ccccc3)=N2)c1 | 4.61 µM [falling, partial curve] | 
59 | CCCCCn1c(=O)c(C(=O)OCC)c(O)c2ccccc21 | 18.4 µM [falling, single point] | 
60 | COc1ccc(C(=O)/C=C/c2cccs2)c(OC(=O)c2cccc([N+](=O)[O-])c2)c1 | 5.17 µM [rising, partial curve, poor fit] | 
61 | COc1ccc(N(CC(=O)O)S(C)(=O)=O)cc1OC | 0.164 µM [rising, full curve, poor fit] | 
62 | C/[N+]([O-])=C\C1C(=O)CCCC1=O | 35.5 µM [rising, single point] | 
63 | Cc1sc2ncnc(NCCc3ccc(S(N)(=O)=O)cc3)c2c1C | 32.6 µM [falling, single point] | 
64 | CC1CCN(S(=O)(=O)c2ccc(C(=O)Nc3ccccn3)cc2)CC1 | 29.1 µM [falling, single point] | 
65 | COc1ccc(-c2cn3cc(C)ccc3n2)cc1F | 0.447 µM [rising, partial curve, poor fit] | 
66 | O=c1c(C=NCCCn2ccnc2)c(-c2ccccc2)[nH]n1-c1nc2ccccc2s1 | 32.6 µM [rising, single point] | 0.82 µM [rising, full curve]
